Values of other authors in US11497764B2, “Polymer lung surfactants” (Purdue Research Foundation, priority 2016, dated 2022).
At least one compound was matched to its structure with a doubt left.

System: infants at risk of RDS
Details: steroid given to mother prior to labor; 25.8% without treatment

Compound: C[C@H]1C[C@H]2[C@@H]3CCC4=CC(=O)C=C[C@]4(C)[C@@]3(F)[C@@H](O)C[C@]2(C)[C@@]1(O)C(=O)CO [betamethasone]
- RDS occurrence: 9.0%
